The experiment has as its target insulin-like growth factor 2 mRNA-binding protein 1 (IGF2BP1) (human (endogenous in human SSC line)) (UniProt Q9NZI8). Nature of the experiment: co-IP; human SSCs lysed in binding/washing buffer; supernatant incubated with antibody overnight at 4 °C; Protein A/G magnetic beads 2 h at room temperature; eluted in SDS-PAGE loading buffer; Western blot. For orientation: A western blot detects proteins with antibodies after separation by electrophoresis.

Consider one substance from article PMC12635413.

No constants are given. Whether binding was seen depends on the method and setting. Binding seen in cells or lysates may run through a third protein. Some results given as binding are weak or reduced against the parent protein; the word gives no strength.

For “Opa interacting protein 5 (OIP5) (from UniProt O43482 1-229)”, the binding result is given as “binds”.
